Measured values from article PMC12227600.
No constants are given. Whether binding was seen depends on the method and setting. Binding seen in cells or lysates may run through a third protein.

Chains of the proteins cited; added tags and fusions are not shown.
UniProt O75116: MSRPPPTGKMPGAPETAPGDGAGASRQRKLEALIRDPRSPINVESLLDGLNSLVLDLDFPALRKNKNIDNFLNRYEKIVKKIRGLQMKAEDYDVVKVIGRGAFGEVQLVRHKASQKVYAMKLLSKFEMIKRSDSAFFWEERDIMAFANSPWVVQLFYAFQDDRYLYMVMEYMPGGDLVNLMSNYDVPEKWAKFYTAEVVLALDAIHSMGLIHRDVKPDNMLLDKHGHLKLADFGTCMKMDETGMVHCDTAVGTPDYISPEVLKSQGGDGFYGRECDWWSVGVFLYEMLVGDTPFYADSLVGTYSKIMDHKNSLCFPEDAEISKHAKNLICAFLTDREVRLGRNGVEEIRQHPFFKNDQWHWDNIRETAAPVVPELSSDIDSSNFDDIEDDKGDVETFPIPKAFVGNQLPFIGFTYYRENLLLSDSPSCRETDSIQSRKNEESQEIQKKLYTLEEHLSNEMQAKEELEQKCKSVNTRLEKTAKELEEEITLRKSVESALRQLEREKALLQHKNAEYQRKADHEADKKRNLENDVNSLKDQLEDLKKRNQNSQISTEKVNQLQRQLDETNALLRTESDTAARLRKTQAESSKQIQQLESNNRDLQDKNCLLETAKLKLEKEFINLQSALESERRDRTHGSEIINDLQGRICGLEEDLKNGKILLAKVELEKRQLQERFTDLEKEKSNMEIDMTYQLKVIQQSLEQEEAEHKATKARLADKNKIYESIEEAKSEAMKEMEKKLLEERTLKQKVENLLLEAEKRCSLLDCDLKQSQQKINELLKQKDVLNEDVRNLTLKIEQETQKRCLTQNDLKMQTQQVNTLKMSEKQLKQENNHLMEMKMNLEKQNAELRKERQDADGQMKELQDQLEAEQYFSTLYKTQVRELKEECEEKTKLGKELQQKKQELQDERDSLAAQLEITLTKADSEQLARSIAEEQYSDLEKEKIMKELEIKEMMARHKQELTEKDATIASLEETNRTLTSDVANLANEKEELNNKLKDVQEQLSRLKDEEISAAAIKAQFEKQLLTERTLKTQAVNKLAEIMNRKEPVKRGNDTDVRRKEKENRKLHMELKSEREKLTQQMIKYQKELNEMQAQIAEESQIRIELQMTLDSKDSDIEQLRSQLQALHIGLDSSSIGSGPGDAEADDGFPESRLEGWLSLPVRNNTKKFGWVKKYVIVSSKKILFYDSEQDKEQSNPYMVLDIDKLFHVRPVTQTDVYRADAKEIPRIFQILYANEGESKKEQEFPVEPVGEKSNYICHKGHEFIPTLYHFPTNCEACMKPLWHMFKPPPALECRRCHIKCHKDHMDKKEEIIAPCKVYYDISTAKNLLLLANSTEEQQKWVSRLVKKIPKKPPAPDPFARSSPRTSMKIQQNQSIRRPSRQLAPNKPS

Molecular target: Rho-associated coiled-coil containing protein kinase 2 (ROCK2) (human (endogenous in QBC-939)) (UniProt O75116)
Assay: co-IP; QBC-939 cell lysate (RIPA); 1 mg protein with 2 ug primary antibody at 4 °C overnight, protein A/G beads 2 h at 4 °C, washed three times with RIPA; immunoblot

- binding: no binding
Substance: dynamin-related protein 1 (Drp1) (from UniProt O00429 1-736)
